According to paper PMC10784507:
Results are given in words; binding and its absence hold for the method and conditions named. For part of these data: Binding seen in cells or lysates may run through a third protein. Some binding calls cover weakened binding; strength is not graded here.

By UniProt entry, the sequences of proteins in these tests, tags left out. Residues count along the entry.
UniProt P31040, residues 43-664: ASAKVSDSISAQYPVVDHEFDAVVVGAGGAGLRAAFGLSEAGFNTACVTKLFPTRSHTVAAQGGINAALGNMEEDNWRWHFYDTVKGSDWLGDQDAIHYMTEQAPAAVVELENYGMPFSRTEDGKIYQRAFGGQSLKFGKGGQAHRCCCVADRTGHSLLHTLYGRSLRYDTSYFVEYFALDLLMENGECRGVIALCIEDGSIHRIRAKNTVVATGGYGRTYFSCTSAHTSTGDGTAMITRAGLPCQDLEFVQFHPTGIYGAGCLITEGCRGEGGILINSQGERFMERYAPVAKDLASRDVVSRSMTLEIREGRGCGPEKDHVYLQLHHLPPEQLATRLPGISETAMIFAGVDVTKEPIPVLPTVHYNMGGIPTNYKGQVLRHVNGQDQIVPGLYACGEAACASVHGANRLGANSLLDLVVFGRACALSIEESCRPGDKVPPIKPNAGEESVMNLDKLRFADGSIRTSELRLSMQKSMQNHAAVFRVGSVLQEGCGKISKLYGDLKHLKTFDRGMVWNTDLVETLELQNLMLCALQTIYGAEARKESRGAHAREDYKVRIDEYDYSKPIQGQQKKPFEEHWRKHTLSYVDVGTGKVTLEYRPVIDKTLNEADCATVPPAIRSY
UniProt Q5VUM1, residues 21-108: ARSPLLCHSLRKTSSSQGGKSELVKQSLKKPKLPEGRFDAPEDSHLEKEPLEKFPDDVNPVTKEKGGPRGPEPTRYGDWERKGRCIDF

Key:
[1] = target: SDHA Myc-DDK-tagged (human) (UniProt P31040); assay: co-IP; anti-FLAG IgG on protein A/G resin, RIPA lysates (750 µg) of hPheo1 sub-lines with SDHAF2 (parental, SDHAF4^rec) stably expressing SDHA-FLAG, overnight 4 °C; western blot for SDHAF4
[2] = target: SDHAF4 re-expressed from pCDH-SDHAF4 (human) (UniProt Q5VUM1); assay: native gel or EMSA; native blue gel electrophoresis (4-16% gradient) of digitonin-solubilised mitochondria of hPheo1 parental, SDHAF4^KO36 and SDHAF4^rec cells, western blot with anti-SDHA, anti-SDHB, anti-SDHAF2, anti-SDHAF4
[3] = target: SDHA Myc-DDK-tagged (human) (UniProt P31040); assay: condition: only in cells without SDHAF2 (SDHAF2^KO); co-IP; anti-FLAG IgG on protein A/G resin, RIPA lysates of hPheo1 sub-lines without SDHAF2 (SDHAF2^KO/SDHAF4^rec, SDHAF2^KO/SDHAF4^OE) stably expressing SDHA-FLAG; western blot for SDHAF4

binding [1]: binds | binding [2]: binds | binding [3]: no binding
Substance: SDHAF4 re-expressed from pCDH-SDHAF4 (from UniProt Q5VUM1 21-108)
